Assay results taken from patent US20230159916A1, “METHODS OF FUNCTIONAL LINKAGE OF CHROMOSOMAL POSITIONS” (ARPEGGIO BIOSCIENCES, INC., priority 2020, published 2023).
At least one compound was matched to its structure with a doubt left.

System: breast cancer cell line (MCF7)
Assay: nascent RNA sequencing (SNAP-seq) of MCF7 cells after estradiol
Type: cell-based
Settings: MCF7, 100 nM estradiol, 15 minutes, treated versus untreated

C[C@]12CC[C@@H]3c4ccc(O)cc4CC[C@H]3[C@@H]1CC[C@@H]2O [estradiol]
level of FOS gene expression (nascent RNA sequence reads at the FOS locus): quantitative increase
